# Measurements published in publication PMC6925144, “A prospective compound screening contest identified broader inhibitors for Sirtuin 1” (Scientific Reports, 2019).
# The chains behind the UniProt entries cited, without tags or fusion partners. Residues count along the entry.
# UniProt Q96EB6, 2-747 limits assumed: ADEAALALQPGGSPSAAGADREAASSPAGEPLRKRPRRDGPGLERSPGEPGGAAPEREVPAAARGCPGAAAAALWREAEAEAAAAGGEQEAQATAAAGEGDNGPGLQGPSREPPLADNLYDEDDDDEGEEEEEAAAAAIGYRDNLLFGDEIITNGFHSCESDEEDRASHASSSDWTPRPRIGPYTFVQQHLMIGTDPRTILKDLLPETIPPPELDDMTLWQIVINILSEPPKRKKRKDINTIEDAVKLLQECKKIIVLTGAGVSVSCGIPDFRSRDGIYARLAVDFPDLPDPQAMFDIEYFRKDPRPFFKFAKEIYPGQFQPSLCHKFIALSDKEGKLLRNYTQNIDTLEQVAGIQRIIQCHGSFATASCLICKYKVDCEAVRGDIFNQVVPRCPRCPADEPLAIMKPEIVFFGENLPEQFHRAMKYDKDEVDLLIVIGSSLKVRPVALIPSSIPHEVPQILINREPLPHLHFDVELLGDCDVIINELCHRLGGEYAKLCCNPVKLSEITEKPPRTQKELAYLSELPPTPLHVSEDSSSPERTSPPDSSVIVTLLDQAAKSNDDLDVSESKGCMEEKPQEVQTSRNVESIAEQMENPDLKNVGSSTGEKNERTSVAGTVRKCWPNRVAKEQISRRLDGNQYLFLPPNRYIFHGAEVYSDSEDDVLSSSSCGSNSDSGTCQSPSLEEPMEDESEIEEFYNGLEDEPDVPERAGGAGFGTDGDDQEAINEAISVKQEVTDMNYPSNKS
# Whole data set: some 3,200 compounds, median “TSA(with NAD+) / Primary screening (TSA) / delta Tm (K)” near -0.04, cut for the highest 2% near 0.37. This is one part of the list.
# Molecular target: NAD-dependent deacetylase Sirtuin 1 (human, UniProt Q96EB6)
# Test: primary screen, delta tm
# Set-up: single well (n = 1, as 'the same TSA')
# Conditions: 10 µM
row,SMILES,TSA(with NAD+) / Primary screening (TSA) / delta Tm (K)
1,CN(c1ccc(CNC(=O)c2cc[n+]([O-])cc2)cc1)C1CCCCC1,-0.22 K
2,NC(=O)c1cc(NC(=O)CN2CCCC2c2cccs2)cc(C(N)=O)c1 (centres unmarked),0.03 K
3,COc1ccc(NC(=O)COC(=O)/C=C/c2cc(OC)c(OC)c(S(=O)(=O)N3CCc4ccccc43)c2)cc1S(=O)(=O)N1CCCCC1,-0.01 K
4,Cc1ccc2[nH]c(SCC(=O)N3CCCC(C(N)=O)C3)nc2c1 (centres unmarked),-0.15 K
5,O=C1CCCN1C(=O)Cn1cnc2cc(Cl)ccc2c1=O,-0.04 K
6,Cc1n[nH]c(=O)c(C(=O)NNC(=O)CC23CC4CC(CC(C4)C2)C3)c1C,0.19 K
7,Cc1nc(N2CCN(c3cccc(C(F)(F)F)c3)CC2)c2c3c(sc2n1)CCC3,-0.03 K
8,O=C1/C(=C/c2ccc(OC(F)F)cc2OC(F)F)Oc2cc(O)ccc21,0.37 K
9,Cc1nc(N2CCC(c3nnc(N(C)C)[nH]3)CC2)c2c3c(sc2n1)CCCC3,-0.23 K
10,Cc1ccc(C(=O)Nc2nc3ccc(NS(=O)(=O)c4ccc5c(c4)CCC(=O)N5)cc3s2)s1,0.46 K
11,CC1CC(N(C)CCCOc2cccc(S(C)(=O)=O)c2)C(=O)O1 (centres unmarked),-0.14 K
12,CCCn1c2c(c(=O)[nH]c1=O)C(=O)C(C)N2 (centres unmarked),-0.11 K
13,FC(F)(F)c1nnc2ccc(NC3CC3)nn12,-0.05 K
14,O=C(CCCn1c(=O)oc2ccccc21)Nc1ccc(N2CCN(Cc3ccccc3)CC2)cc1,0.15 K
15,CN(c1ccc(OCCCC(C)(C)C#N)cc1)S(=O)(=O)c1ccc(Cl)cc1,0.11 K
16,Brc1ccc2[nH]c3c(c2c1)CCCCCC3,0.06 K
17,Cc1nc(C#N)c(C#N)n1Cc1cnn(-c2ccccc2)c1,-0.05 K
18,CC(OC(=O)C1=CN2CCS(=O)(=O)N=C2C=C1)C(=O)Nc1ccc(Oc2ccccc2)cc1 (centres unmarked),-0.11 K
19,O=[N+]([O-])c1cnn(-c2ncnc3ccsc23)c1,-0.03 K
20,CCCOc1c(Cl)cc(/C=C/C(=O)Nc2c(C(N)=O)n[nH]c2C)cc1OC,-0.03 K
21,CC(C)(C)c1nc(CN2CCN(c3ncnc4c3oc3ccccc34)CC2)no1,-0.15 K
22,O=C(c1cc2ccccc2oc1=O)N1CCC(c2ccc(O)cc2)CC1,-0.12 K
23,O=C(O)C(O)CS(=O)(=O)O (centres unmarked),-0.15 K
24,CC12CCC(=O)N1C(C(=O)O)Cc1c2[nH]c2ccccc12 (centres unmarked),0.09 K

# 3 structures out of the list, sorted by length of the SMILES, largest number first.
row,SMILES,TSA(with NAD+) / Primary screening (TSA) / delta Tm (K)
3,COc1ccc(NC(=O)COC(=O)/C=C/c2cc(OC)c(OC)c(S(=O)(=O)N3CCc4ccccc43)c2)cc1S(=O)(=O)N1CCCCC1,-0.01 K
18,CC(OC(=O)C1=CN2CCS(=O)(=O)N=C2C=C1)C(=O)Nc1ccc(Oc2ccccc2)cc1 (centres unmarked),-0.11 K
5,O=C1CCCN1C(=O)Cn1cnc2cc(Cl)ccc2c1=O,-0.04 K

# Next part

row,SMILES,TSA(with NAD+) / Primary screening (TSA) / delta Tm (K)
1,O=C(Nc1ccccc1)C1CCN(c2ncnc3scc(-c4ccc(F)cc4)c23)CC1,0.13 K
2,Cc1ccccc1-c1nnc(Nc2cccc(S(=O)(=O)N(C)c3ccccc3)c2)o1,0.01 K
3,Cc1nc(N2CCC(C(N)=O)CC2)c2cc(-c3ccccc3)sc2n1,-0.04 K
4,Cc1nc(N2CCC(NC(N)=O)CC2)c2c3c(sc2n1)CCCC3,-0.03 K
5,CC1CC(C(N)=O)c2ccccc2N1Cc1nc(-c2cccc(C(F)(F)F)c2)no1 (centres unmarked),-0.08 K
6,Cn1c2ccccc2c2cc(S(=O)(=O)NCc3cccc(NC(=O)C4CC4)c3)ccc21,0.06 K
7,NC(c1ccccc1)c1ccc(Cl)cc1 (centres unmarked),-0.15 K
8,CCN(CC(=O)Nc1ccc(OC)cc1)C(C)C(=O)Nc1ccc(C(N)=O)cc1 (centres unmarked),-0.06 K
9,CNC(=O)CS,-0.21 K
10,CC(=O)c1ccccc1NC(=O)c1cc(F)c(F)c(F)c1F,-0.03 K
11,Cc1ccc2c(c1)nc(-c1cnc(N3CCCC3)nc1)n2C,-0.11 K
12,Cc1ccc(Nc2nc(CSc3nnc(NCc4ccco4)s3)cs2)cc1,-0.12 K
13,O=C(NO)c1cccc(C(F)(F)F)c1,-0.19 K
14,Cc1noc(C)c1COc1ccccc1C(=O)NCCc1cccnc1,-0.18 K
15,COC(=O)C1=C(C)OC(CSc2nnc(CCC3CCCC3)[nH]2)C1 (centres unmarked),-0.14 K
16,Cn1c(NCc2cccnc2)c(C#N)c(=O)n(C)c1=O,0.05 K
17,CCSC1CCC(NC(=O)Cc2cnc3ccccc3c2)C1 (centres unmarked),-0.11 K
18,CCCN(Cc1nnc(-c2ccccc2Cl)o1)C(=O)c1cccc(S(=O)(=O)N(C)c2ccc(C)cc2)c1,-0.09 K
19,O=C(CN1CCN(C(=O)c2ccccc2C(=O)c2ccccc2)CC1)Nc1ccccc1Cl,0.05 K
20,COc1cc(CN(C)C(=O)Cn2c(=O)oc3ccccc32)ccc1OCc1ccccc1,-0.02 K
21,CC1CCN(c2ccc(C(=O)Nc3ncc(C(N)=O)s3)cc2[N+](=O)[O-])CC1,0.17 K
22,CCNCCO,-0.13 K
23,CN(CC(=O)Nc1ccccc1Cl)C(=O)CNc1cccc(OC(F)(F)F)c1,-0.06 K
